Experimental data taken from publication PMC6158257.
Results are given in words; binding and its absence hold for the method and conditions named. In cells and extracts the contact can be indirect. These calls come from enrichment with a bait or labelling near it, and not all partners need be listed. One block for each molecule: values may come before it.

The chains behind the UniProt entries cited, without tags or fusion partners.
UniProt P35579: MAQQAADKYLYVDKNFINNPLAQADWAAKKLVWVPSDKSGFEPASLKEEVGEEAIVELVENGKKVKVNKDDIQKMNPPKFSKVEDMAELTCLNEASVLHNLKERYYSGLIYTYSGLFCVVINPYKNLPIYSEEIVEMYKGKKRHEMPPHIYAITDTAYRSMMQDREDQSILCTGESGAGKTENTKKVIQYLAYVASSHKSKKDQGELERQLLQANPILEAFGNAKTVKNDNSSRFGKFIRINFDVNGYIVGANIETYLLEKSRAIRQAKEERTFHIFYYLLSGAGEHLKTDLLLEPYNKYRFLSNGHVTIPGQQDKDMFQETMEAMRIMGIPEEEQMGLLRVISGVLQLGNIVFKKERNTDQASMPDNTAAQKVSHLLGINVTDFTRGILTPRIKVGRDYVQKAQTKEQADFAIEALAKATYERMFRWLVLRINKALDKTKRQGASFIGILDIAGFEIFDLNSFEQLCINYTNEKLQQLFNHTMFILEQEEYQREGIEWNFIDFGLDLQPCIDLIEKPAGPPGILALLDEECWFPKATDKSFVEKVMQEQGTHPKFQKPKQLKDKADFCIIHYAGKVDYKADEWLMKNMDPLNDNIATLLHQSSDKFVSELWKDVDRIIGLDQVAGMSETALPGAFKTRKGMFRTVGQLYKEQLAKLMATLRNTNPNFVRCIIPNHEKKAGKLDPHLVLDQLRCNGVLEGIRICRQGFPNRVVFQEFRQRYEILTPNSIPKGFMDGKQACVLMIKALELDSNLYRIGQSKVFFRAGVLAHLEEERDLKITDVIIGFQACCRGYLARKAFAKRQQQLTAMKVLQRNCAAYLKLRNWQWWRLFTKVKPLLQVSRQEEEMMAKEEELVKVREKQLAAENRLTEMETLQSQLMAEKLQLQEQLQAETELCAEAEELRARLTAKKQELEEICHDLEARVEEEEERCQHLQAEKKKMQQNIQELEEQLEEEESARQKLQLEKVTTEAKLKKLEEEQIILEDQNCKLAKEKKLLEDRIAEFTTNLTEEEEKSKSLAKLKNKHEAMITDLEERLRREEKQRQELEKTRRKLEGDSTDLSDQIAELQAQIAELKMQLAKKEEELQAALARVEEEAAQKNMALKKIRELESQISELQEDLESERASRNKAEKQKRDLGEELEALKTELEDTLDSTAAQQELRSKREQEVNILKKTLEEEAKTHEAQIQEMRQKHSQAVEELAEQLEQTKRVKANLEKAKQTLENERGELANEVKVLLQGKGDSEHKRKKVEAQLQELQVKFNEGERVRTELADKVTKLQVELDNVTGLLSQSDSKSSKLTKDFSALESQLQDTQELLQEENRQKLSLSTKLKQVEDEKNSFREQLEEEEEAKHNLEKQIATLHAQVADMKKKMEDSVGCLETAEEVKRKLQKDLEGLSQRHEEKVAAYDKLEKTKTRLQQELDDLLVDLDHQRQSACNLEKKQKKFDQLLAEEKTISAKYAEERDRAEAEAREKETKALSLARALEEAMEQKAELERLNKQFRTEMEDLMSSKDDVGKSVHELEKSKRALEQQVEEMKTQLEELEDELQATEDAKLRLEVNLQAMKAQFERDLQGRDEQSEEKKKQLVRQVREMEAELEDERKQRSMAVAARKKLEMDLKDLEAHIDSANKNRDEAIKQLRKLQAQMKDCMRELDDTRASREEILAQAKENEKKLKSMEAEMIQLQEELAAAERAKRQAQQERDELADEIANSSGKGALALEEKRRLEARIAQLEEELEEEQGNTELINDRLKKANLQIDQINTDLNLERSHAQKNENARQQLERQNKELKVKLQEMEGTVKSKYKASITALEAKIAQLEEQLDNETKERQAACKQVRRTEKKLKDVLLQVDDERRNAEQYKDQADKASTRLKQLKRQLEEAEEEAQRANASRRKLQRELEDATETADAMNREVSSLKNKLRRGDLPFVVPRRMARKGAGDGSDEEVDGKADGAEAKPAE
UniProt P35580: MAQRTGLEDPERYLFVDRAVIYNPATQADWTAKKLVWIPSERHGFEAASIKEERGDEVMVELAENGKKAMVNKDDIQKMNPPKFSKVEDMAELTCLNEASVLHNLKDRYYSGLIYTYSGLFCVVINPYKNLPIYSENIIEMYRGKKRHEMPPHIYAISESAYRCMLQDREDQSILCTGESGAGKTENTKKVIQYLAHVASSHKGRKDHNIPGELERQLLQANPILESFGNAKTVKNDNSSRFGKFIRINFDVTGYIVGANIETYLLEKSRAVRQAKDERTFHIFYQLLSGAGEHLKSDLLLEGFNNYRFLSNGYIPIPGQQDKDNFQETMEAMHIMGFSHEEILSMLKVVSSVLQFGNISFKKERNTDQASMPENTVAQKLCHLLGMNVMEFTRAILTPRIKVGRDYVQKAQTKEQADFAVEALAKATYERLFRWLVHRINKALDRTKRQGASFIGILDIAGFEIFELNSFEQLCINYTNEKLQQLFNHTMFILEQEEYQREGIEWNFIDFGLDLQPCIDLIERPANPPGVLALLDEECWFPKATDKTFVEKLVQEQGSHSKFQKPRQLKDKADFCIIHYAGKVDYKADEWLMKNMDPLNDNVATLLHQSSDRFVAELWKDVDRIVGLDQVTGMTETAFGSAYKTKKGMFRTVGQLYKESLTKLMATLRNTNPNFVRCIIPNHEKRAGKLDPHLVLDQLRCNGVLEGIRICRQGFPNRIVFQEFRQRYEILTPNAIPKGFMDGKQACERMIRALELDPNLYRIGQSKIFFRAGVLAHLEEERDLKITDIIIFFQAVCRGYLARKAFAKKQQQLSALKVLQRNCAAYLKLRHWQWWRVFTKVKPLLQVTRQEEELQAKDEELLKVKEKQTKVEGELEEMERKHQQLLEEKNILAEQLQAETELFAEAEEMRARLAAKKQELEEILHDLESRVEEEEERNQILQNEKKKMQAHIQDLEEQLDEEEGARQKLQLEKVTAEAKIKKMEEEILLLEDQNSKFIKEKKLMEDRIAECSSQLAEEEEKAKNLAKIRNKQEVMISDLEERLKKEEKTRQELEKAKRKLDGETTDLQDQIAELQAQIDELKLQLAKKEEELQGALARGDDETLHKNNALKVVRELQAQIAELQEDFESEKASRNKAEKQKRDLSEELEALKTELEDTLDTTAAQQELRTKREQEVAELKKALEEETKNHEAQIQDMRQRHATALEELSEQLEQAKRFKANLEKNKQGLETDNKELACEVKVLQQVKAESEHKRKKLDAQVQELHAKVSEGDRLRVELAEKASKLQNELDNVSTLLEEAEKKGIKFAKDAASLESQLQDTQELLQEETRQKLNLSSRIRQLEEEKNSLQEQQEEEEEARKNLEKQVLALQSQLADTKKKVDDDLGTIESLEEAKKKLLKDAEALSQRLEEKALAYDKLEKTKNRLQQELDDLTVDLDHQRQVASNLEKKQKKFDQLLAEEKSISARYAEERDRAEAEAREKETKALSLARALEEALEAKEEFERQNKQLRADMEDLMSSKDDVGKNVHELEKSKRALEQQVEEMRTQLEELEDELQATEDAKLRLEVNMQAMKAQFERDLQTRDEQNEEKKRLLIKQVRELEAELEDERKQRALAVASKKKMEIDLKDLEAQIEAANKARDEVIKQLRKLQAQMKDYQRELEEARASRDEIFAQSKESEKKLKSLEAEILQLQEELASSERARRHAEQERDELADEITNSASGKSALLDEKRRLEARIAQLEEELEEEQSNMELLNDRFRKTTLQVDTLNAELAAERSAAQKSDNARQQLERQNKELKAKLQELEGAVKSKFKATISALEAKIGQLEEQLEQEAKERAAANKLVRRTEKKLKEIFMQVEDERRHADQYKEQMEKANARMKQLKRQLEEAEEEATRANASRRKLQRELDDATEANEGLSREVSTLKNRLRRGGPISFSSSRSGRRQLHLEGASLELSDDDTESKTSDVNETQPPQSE
UniProt P38159: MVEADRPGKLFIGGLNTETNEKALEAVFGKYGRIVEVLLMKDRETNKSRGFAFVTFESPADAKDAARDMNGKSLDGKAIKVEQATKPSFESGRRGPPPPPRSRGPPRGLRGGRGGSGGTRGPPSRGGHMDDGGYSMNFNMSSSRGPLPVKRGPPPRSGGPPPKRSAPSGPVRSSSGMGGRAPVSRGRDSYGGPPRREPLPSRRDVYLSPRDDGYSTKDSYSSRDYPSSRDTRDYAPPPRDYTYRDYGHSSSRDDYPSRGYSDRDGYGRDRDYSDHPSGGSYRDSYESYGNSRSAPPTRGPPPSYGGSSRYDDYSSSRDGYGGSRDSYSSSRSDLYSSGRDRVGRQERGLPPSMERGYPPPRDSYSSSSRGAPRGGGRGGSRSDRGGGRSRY

Molecular target: T1, USP45 (endogenous) (human (endogenous in KBM7, U2OS, HEK293)) (UniProt Q70EL2)
T1 sequence: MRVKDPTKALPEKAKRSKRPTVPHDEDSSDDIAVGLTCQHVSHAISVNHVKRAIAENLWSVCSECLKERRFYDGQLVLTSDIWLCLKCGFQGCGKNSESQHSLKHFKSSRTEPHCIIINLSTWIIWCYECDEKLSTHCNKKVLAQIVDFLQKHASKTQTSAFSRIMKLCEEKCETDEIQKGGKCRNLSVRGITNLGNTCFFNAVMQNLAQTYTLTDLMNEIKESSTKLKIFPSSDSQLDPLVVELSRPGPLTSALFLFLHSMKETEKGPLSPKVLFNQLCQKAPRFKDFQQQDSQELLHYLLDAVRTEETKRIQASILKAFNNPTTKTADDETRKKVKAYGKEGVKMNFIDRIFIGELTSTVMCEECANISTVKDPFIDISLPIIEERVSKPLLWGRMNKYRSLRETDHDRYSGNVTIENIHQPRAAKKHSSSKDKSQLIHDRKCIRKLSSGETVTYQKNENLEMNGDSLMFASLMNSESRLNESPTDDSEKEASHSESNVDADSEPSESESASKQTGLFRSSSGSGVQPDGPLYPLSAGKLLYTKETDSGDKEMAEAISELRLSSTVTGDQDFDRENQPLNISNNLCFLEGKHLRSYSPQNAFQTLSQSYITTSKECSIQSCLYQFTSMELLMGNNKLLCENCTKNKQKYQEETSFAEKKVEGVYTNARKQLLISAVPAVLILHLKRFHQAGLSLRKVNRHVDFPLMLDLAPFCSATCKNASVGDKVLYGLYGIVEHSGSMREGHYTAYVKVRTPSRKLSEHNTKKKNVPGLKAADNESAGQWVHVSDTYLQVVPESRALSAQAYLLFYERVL
Assay: affinity purification with mass spectrometry; endogenous USP45 immunoprecipitated with anti-USP45 antibody coupled to protein G-Sepharose from 50 mg lysate of WT or USP45 KO KBM7 and U2OS cells; washes with 0.5 M NaCl; gel sections analysed by LC-MS

- binding: binds
Molecule: MYH9 (endogenous) (from UniProt P35579 1-1960)

- binding: binds
Molecule: MYH10 (endogenous) (from UniProt P35580 1-1976)

- binding: binds
Molecule: RBMX (endogenous) (from UniProt P38159 1-391)

- binding: binds
B1: ERCC1 (endogenous) (protein, UniProt P07992 1-297)
chain: MDPGKDKEGVPQPSGPPARKKFVIPLDEDEVPPGVAKPLFRSTQSLPTVDTSAQAAPQTYAEYAISQPLEGAGATCPTGSEPLAGETPNQALKPGAKSNSIIVSPRQRGNPVLKFVRNVPWEFGDVIPDYVLGQSTCALFLSLRYHNLHPDYIHGRLQSLGKNFALRVLLVQVDVKDPQQALKELAKMCILADCTLILAWSPEEAGRYLETYKAYEQKPADLLMEKLEQDFVSRVTECLTTVKSVNKTDSQTLLTTFGSLEQLIAASREDLALCPGLGPQKARRLFDVLHEPFLKVP

- binding: binds
B2: XPF (endogenous) (protein, UniProt Q92889 1-916)
chain: MESGQPARRIAMAPLLEYERQLVLELLDTDGLVVCARGLGADRLLYHFLQLHCHPACLVLVLNTQPAEEEYFINQLKIEGVEHLPRRVTNEITSNSRYEVYTQGGVIFATSRILVVDFLTDRIPSDLITGILVYRAHRIIESCQEAFILRLFRQKNKRGFIKAFTDNAVAFDTGFCHVERVMRNLFVRKLYLWPRFHVAVNSFLEQHKPEVVEIHVSMTPTMLAIQTAILDILNACLKELKCHNPSLEVEDLSLENAIGKPFDKTIRHYLDPLWHQLGAKTKSLVQDLKILRTLLQYLSQYDCVTFLNLLESLRATEKAFGQNSGWLFLDSSTSMFINARARVYHLPDAKMSKKEKISEKMEIKEGEETKKELVLESNPKWEALTEVLKEIEAENKESEALGGPGQVLICASDDRTCSQLRDYITLGAEAFLLRLYRKTFEKDSKAEEVWMKFRKEDSSKRIRKSHKRPKDPQNKERASTKERTLKKKKRKLTLTQMVGKPEELEEEGDVEEGYRREISSSPESCPEEIKHEEFDVNLSSDAAFGILKEPLTIIHPLLGCSDPYALTRVLHEVEPRYVVLYDAELTFVRQLEIYRASRPGKPLRVYFLIYGGSTEEQRYLTALRKEKEAFEKLIREKASMVVPEEREGRDETNLDLVRGTASADVSTDTRKAGGQEQNGTQQSIVVDMREFRSELPSLIHRRGIDIEPVTLEVGDYILTPEMCVERKSISDLIGSLNNGRLYSQCISMSRYYKRPVLLIEFDPSKPFSLTSRGALFQEISSNDISSKLTLLTLHFPRLRILWCPSPHATAELFEELKQSKPQPDAATALAITADSETLPESEKYNPGPQDFLLKMPGVNAKNCRSLMHHVKNIAELAALSQDELTSILGNAANAKQLYDFIHTSFAEVVSKGKGKK
